{"source": "patent US5371102A", "about": "“Compositions and methods of inhibiting thyroid activity” (priority 1993, dated 1994)", "origin": "cited, not measured here", "tested_on": "TPX", "settings": "cited from earlier work", "note": "At least one compound was matched to its structure with a doubt left."}
{"compound": "CCOC(=O)n1ccn(C)c1=S", "note": "[carbimazole, 1-carboxyethyl-3-methylimidazole-2-thione]", "values": [{"measurement": "inhibition of TPX-catalyzed iodination", "result": "reversible inhibitor"}]}
